This assay has as its system CD2F1 mice, L1210 leukemia ip, survival T/C. As to the kind of experiment: NCI In Vivo Anticancer Drug Screen. Data for tumor model L1210 Leukemia (intraperitoneal) in CD2F1 (CDF1) mice. The following applies: higher T/C = longer survival. An outline of the steps: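 Mice carrying a transplanted tumor received test compound or vehicle alone. The value is the measurement in the treated group divided by that in the vehicle-treated control group.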

The mark [1] stands for this setting: T/C endpoint: mean survival time, dose: 200.0 mg/kg/injection, schedule: Q01DX009 (ip), vehicle: saline with Tween-80.
The mark [2] stands for this setting: T/C endpoint: mean survival time, dose: 400.0 mg/kg/injection, schedule: Q04DX003 (ip), vehicle: saline with Tween-80.
[3] abbreviates: T/C endpoint: mean survival time, dose: 50.0 mg/kg/injection, schedule: Q01DX009 (ip), vehicle: saline with Tween-80.
[4] abbreviates: T/C endpoint: mean survival time, dose: 100.0 mg/kg/injection, schedule: Q04DX003 (ip), vehicle: saline with Tween-80.
The mark [5] stands for this setting: T/C endpoint: mean survival time, dose: 400.0 mg/kg/injection, schedule: Q01DX009 (ip), vehicle: saline with Tween-80.
The mark [6] stands for this setting: T/C endpoint: mean survival time, dose: 25.0 mg/kg/injection, schedule: Q01DX009 (ip), vehicle: saline with Tween-80.
Setting [7] is: T/C endpoint: mean survival time, dose: 100.0 mg/kg/injection, schedule: Q01DX009 (ip), vehicle: saline with Tween-80.
Setting [8] is: T/C endpoint: mean survival time, dose: 200.0 mg/kg/injection, schedule: Q04DX003 (ip), vehicle: saline with Tween-80.
Setting [9] is: T/C endpoint: mean survival time, dose: 200.0 mg/kg/injection, schedule: Q04DX003 (ip), vehicle: acetone.
Where [10] appears, read: T/C endpoint: mean survival time, dose: 400.0 mg/kg/injection, schedule: Q04DX003 (ip), vehicle: acetone.
Setting [11] is: T/C endpoint: mean survival time, dose: 25.0 mg/kg/injection, schedule: Q01DX009 (ip), vehicle: saline.
Where [12] appears, read: T/C endpoint: mean survival time, dose: 50.0 mg/kg/injection, schedule: Q01DX009 (ip), vehicle: saline.

The list is a part of this screen's results and no random one: it gathers tests that were run many times, whatever their T/C, doses with no T/C, and many T/C values between a quarter and a half above the control. Further doses and runs are listed elsewhere. T/C: endpoint of the treated group in % of that of the vehicle group. Some entries give survivors of the animals treated and no T/C: the source files T/C as zero there, which appears to mark a toxic dose or a test without result, not a measured value. Some doses without a T/C left all or most animals alive at the check, yet need not have been tolerated: survival well below the control is almost never listed, so the zero probably covers shortened survival too. Counts of survivors are from the toxicity check (mostly the fifth day) where no day follows; animals may have died later. Schedules are NCI's codes, read here as Q, the interval in days (D) or hours (H), X, the number of doses. Some structures stand for samples that the source files as different forms (salt, stereo form or complex); doses refer to the form tested. For survival time, this PubChem deposit counts one and a half times the control or more as active, and values a quarter to a half above the control carry no call in these data; other NCI protocols may use other cut-offs. Some T/C values are followed by the survivors on the day toxicity was checked, most often the fifth; without a count, all were alive then.

For the molecule `COc1cc(/C=C/[N+](=O)[O-])cc(Br)c1OC`, the survivor count is, setting by setting: (T/C endpoint: median survival time, dose: 50.0 mg/kg/injection, schedule: Q01DX009 (ip), vehicle: saline with Tween-80) 0 of 6; (T/C endpoint: median survival time, dose: 100.0 mg/kg/injection, schedule: Q01DX009 (ip), vehicle: saline with Tween-80) 0 of 6.

Regarding `NC(N)=NCCNC(=O)C1CCC(N)C1` (stereo not given), the survivor count is given as 6 of 6 (T/C endpoint: mean survival time, dose: 2.5 mg/kg/injection, schedule: Q01DX009 (ip), vehicle: saline) and 6 of 6 (T/C endpoint: mean survival time, dose: 5.0 mg/kg/injection, schedule: Q01DX009 (ip), vehicle: saline).

For `CCCCCCCCC(=O)N(C)OC`, under setting [1], the survivor count is on record as 2 of 6.

Regarding `c1cc(OCC2CO2)ccc1OCC1CO1` (stereo not given), the survivor count (T/C endpoint: mean survival time, dose: 200.0 mg/kg/injection, schedule: Q01DX009 (ip), vehicle: Klucel (hydroxypropylcellulose) (HPC)) is given as 6 of 6 and the survivor count (T/C endpoint: mean survival time, dose: 400.0 mg/kg/injection, schedule: Q01DX009 (ip), vehicle: Klucel (hydroxypropylcellulose) (HPC)) is listed as 1 of 6.

Turning to `CCCCCCCC(=O)/C=C/Sc1n[nH]c(=O)[nH]c1=O`, the survivor count is, setting by setting: (T/C endpoint: mean survival time, dose: 100.0 mg/kg/injection, schedule: Q01DX005 (ip), vehicle: distilled water + Tween-80) 5 of 6; (T/C endpoint: mean survival time, dose: 200.0 mg/kg/injection, schedule: Q01DX005 (ip), vehicle: distilled water + Tween-80) 0 of 6.

Consider `CCCCN1C(=O)C(=O)N(c2ccc(S(N)(=O)=O)cc2)C1=O`, for which, under setting [1], the survivor count is 0 of 3.

For the molecule `[O-]/[N+](=C\c1ccccc1)c1ccccc1`, the survivor count under setting [2] is 3 of 6.

With `CC1=C(/C=C/C(C)=N/NC(N)=S)C(C)(C)CCC1`, the survivor count by setting is: under setting [3], 1 of 6; under setting [4], 6 of 6.

Take `Nc1ccc(Nc2ccccc2C(=O)O)cc1`: under setting [2], the survivor count is 1 of 6.

`COc1cc2cccnc2c2[nH]cc(C(=O)O)c(=O)c12`: the survivor count under setting [1] is given as 5 of 6 and the survivor count under setting [5] is 1 of 6.

Regarding `CCCCN1C(=O)C=CC1=O`, the survivor count (T/C endpoint: mean survival time, dose: 6.25 mg/kg/injection, schedule: Q01DX009 (ip), vehicle: saline with Tween-80) is given as 0 of 3; the survivor count (T/C endpoint: mean survival time, dose: 12.5 mg/kg/injection, schedule: Q01DX009 (ip), vehicle: saline with Tween-80) is given as 0 of 3; the survivor count under setting [6] was 0 of 3.

Regarding `CCC[CH2][Sn]([Cl])([CH2]Cl)[CH2]CCC`, for the setting “T/C endpoint: mean survival time, dose: 10.0 mg/kg/injection, schedule: Q04DX003 (ip), vehicle: saline”, the survivor count is 6 of 6.

On to `[Cl][Pt][Cl].c1ccc2[nH]c(C3CCCC[N-]3)nc2c1` (stereo not given), for which the survivor count under setting [7] was 6 of 6.

`O=C(NS(=O)(=O)c1ccc(Cl)cc1)OCCCl`: the survivor count under setting [5] is on record as 3 of 6.

For `C=C(C)C1(CC(C)C)C(=O)NC(=S)NC1=O`, the survivor count by setting is: (T/C endpoint: mean survival time, dose: 75.0 mg/kg/injection, schedule: Q01DX001 (ip), vehicle: other) 0 of 6; (T/C endpoint: mean survival time, dose: 150.0 mg/kg/injection, schedule: Q01DX001 (ip), vehicle: other) 0 of 6; (T/C endpoint: mean survival time, dose: 300.0 mg/kg/injection, schedule: Q01DX001 (ip), vehicle: other) 0 of 6.

With `CCCCCCCCCCCCCCCC(=O)N(CCCN(C)C)C1CCC(N(CCCN(C)C)C(=O)CCCCCCCCCCCCCCC)CC1` (stereo not given), the survivor count under setting [6] is reported as 3 of 6; the survivor count under setting [3] is reported as 3 of 6; the survivor count under setting [4] was 2 of 6; the survivor count under setting [8] is reported as 0 of 6; the survivor count under setting [2] is on record as 0 of 6.

Take `O=C(C[n+]1ccccc1)c1ccccc1`: the survivor count is 1 of 6 (T/C endpoint: mean survival time, dose: 200.0 mg/kg/injection, schedule: Q01DX001 (ip), vehicle: saline); 0 of 3 (T/C endpoint: mean survival time, dose: 200.0 mg/kg/injection, schedule: Q04DX002 (ip), vehicle: saline with Tween-80); 0 of 6 (T/C endpoint: mean survival time, dose: 400.0 mg/kg/injection, schedule: Q01DX001 (ip), vehicle: saline); 0 of 3 (T/C endpoint: mean survival time, dose: 400.0 mg/kg/injection, schedule: Q04DX002 (ip), vehicle: saline with Tween-80).

In the case of `O=C1c2cccc3c2C2(O)c4c1cccc4C(=O)c1cccc(c12)C3=O`, under “T/C endpoint: mean survival time, dose: 300.0 mg/kg/injection, schedule: Q01DX009 (ip), vehicle: saline with Tween-80”, the survivor count was 0 of 6.

Take `Cc1c2cnccc2c(C)c2c1c1ccccc1n2CCO`: the T/C was 130 % of control under setting [7] and 139 % of control under setting [1].

`CCCCOC(=O)c1cc([N+](=O)[O-])c(Sc2ncnc3nc[nH]c23)c([N+](=O)[O-])c1`: the T/C was 138 % of control (T/C endpoint: mean survival time, dose: 30.0 mg/kg/injection, schedule: Q01DX005 (ip), vehicle: other) and 149 % of control (T/C endpoint: mean survival time, dose: 60.0 mg/kg/injection, schedule: Q01DX005 (ip), vehicle: other).

`NNc1ccccc1F`: the survivor count is listed as 0 of 6 (T/C endpoint: mean survival time, dose: 200.0 mg/kg/injection, schedule: Q04DX003 (ip), vehicle: saline sonified) and 0 of 6 (T/C endpoint: mean survival time, dose: 400.0 mg/kg/injection, schedule: Q04DX003 (ip), vehicle: saline sonified).

For `Cc1cccc(/C=N/OCCC(C)C)n1`, the survivor count under setting [2] is given as 3 of 6.

On to `Cc1ccc2c3nc4ccccc4c-3csc2c1`, for which the survivor count by setting is: (T/C endpoint: mean survival time, dose: 100.0 mg/kg/injection, schedule: Q04DX003 (ip), vehicle: acetone) 5 of 6; under setting [9], 3 of 6; under setting [10], 1 of 6.

Turning to `O=C1N=C(Oc2ccccc2)SC1=O`, the survivor count by setting is: under setting [1], 2 of 6; under setting [5], 0 of 6.

`CCCCCCCCCCCCCCC[N+]1(C)CCSCC1`: the survivor count (T/C endpoint: mean survival time, dose: 100.0 mg/kg/injection, schedule: Q01DX001 (ip), vehicle: saline with Tween-80) is given as 1 of 6.

On to `O=C(O)C(CSC(c1ccccc1)(c1ccccc1)c1ccccc1)N=Cc1cccs1` (stereo not given), for which the T/C by setting is: under setting [11], 125 % of control; under setting [3], 128 % of control; under setting [12], 134 % of control; (T/C endpoint: mean survival time, dose: 50.0 mg/kg/injection, schedule: Q01DX009 (ip), vehicle: suspension in saline) 134 % of control; (T/C endpoint: mean survival time, dose: 100.0 mg/kg/injection, schedule: Q01DX009 (ip), vehicle: saline) 133 % of control [5 of 6 alive]. The survivor count is listed as 6 of 6 (T/C endpoint: mean survival time, dose: 150.0 mg/kg/injection, schedule: Q01DX009 (ip), vehicle: saline); 1 of 6 (T/C endpoint: mean survival time, dose: 400.0 mg/kg/injection, schedule: Q01DX009 (ip), vehicle: saline); 0 of 6 (T/C endpoint: mean survival time, dose: 400.0 mg/kg/injection, schedule: Q01DX009 (ip), vehicle: suspension in saline).

With `NN(C(=O)c1ccccc1)C1CCCCC1`, the survivor count is given as 5 of 6 under setting [1] and 0 of 6 under setting [5].

As for `CCCCCOC(=O)CCCc1ccc(N(CCCl)CCCl)cc1`, the T/C reads like this: under setting [11], 128 % of control; under setting [12], 135 % of control.

With `CC(C)N1CCOCC1`, the survivor count under setting [9] is recorded as 0 of 6 and the survivor count under setting [10] is 0 of 6.

Consider `Cc1ncc(CNC(=O)N(CCCl)N=O)c(N)n1`, for which the T/C was 133 % of control under setting [11] and 133 % of control under setting [3]. The survivor count is 6 of 6 under setting [12] and 3 of 3 (T/C endpoint: mean survival time, dose: 70.0 mg/kg/injection, schedule: Q04DX002 (ip), vehicle: saline).

Regarding `Nc1cc(Cl)c(Cl)cc1S(=O)(=O)NO`, the survivor count under setting [8] is reported as 6 of 6.

On to `NC(=O)OCCc1ccccc1`, for which the survivor count (T/C endpoint: mean survival time, dose: 400.0 mg/kg/injection, schedule: Q04DX003 (ip), vehicle: Klucel (hydroxypropylcellulose) (HPC)) is on record as 3 of 3.

As for `N#CC(=C=[N-])[n+]1ccccc1`, the survivor count (T/C endpoint: mean survival time, dose: 50.0 mg/kg/injection, schedule: Q04DX003 (ip), vehicle: Klucel (hydroxypropylcellulose) (HPC)) is recorded as 3 of 6.

In the case of `O[O][Sn][c]1ccccc1`, the survivor count under setting [2] is recorded as 3 of 6.
